Assay results taken from article PMC4501001.
Results are given in words; binding and its absence hold for the method and conditions named. Some binding calls cover weakened binding; strength is not graded here.

Sequences of proteins named here, by UniProt entry; tags and fusion partners are left off. Residues count along the entry.
UniProt P08670: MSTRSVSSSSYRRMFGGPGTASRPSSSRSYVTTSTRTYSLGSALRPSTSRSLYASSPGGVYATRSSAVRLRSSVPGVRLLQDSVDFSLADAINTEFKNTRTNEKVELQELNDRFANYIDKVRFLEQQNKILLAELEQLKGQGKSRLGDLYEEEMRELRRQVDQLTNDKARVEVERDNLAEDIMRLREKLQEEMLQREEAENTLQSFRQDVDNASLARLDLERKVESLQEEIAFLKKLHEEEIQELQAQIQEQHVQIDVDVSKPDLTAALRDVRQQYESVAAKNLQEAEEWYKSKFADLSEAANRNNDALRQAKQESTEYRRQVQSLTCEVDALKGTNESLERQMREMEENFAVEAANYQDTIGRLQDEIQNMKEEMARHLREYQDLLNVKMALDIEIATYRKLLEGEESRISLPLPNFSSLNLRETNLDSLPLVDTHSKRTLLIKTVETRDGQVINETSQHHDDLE
UniProt P08069, residues 31-1367: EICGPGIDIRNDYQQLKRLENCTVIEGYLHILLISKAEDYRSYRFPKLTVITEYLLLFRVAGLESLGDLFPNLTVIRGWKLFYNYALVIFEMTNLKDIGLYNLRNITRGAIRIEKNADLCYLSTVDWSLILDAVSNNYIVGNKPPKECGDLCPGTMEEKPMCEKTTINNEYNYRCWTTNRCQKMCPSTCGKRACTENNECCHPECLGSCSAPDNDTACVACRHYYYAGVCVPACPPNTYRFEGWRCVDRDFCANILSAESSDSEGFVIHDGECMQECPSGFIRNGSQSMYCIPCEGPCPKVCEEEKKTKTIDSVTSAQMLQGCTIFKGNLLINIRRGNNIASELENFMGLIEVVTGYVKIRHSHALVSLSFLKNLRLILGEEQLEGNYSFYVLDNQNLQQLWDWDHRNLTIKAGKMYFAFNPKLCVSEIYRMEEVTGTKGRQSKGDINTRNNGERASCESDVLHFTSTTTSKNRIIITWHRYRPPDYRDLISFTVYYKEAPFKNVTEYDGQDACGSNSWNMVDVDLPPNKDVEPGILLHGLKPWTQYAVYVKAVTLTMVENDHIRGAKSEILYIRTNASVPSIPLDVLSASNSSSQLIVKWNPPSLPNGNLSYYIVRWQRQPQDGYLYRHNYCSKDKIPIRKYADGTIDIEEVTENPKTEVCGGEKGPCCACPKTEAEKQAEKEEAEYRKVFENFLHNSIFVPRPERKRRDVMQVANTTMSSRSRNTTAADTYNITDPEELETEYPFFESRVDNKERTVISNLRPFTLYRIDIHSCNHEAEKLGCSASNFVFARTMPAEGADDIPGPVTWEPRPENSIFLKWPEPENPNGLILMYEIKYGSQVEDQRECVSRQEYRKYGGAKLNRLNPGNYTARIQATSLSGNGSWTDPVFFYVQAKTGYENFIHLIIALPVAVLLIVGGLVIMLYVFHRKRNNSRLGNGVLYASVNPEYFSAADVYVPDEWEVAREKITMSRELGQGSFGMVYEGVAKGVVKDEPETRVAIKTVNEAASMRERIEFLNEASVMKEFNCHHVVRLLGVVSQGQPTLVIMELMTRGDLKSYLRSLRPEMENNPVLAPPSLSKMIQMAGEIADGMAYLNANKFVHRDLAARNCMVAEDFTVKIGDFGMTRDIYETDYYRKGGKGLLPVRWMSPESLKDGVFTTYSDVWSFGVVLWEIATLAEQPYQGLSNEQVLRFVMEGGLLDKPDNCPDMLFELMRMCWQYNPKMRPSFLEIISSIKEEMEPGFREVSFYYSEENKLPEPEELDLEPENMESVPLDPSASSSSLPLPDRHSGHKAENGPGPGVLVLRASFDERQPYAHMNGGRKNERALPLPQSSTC

Tests used:
[1] = molecular target: vimentin (recombinant vimentin protein) (UniProt P08670); experiment: co-IP; recombinant vimentin (10 pmol) and recombinant IGF1R (5 pmol) co-incubated 1 h at room temperature; precipitated over night at 4 °C with anti-vimentin antibody (RV202) or normal mouse IgG on Dynabeads Protein G in M-PER; IGF1R detected by western blot; both purified
[2] = molecular target: Recombinant human IGF1R protein (full length, Abnova) (human) (UniProt P08069); experiment: drug affinity responsive target stability (DARTS) with western blot; recombinant human IGF1R in 25 mM Tris-HCl pH 8.0, 2% glycerol mixed with vimentin, IGF1 or vehicle (IGF1R protein:drug, 1 ng:19 ng), 60 min at room temperature; thermolysin 10 min at 37 °C (thermolysin:sample, 1 ng:50 ng); IGF1R detected by western blot; both purified

binding [1]	binding [2]	Substance
binds	–	Recombinant human IGF1R protein (full length, Abnova) (from UniProt P08069 31-1367) (receptor)
–	binds	vimentin (recombinant vimentin protein) (from UniProt P08670 1-466)
